Experimental data published in PMC8380248.
Results are given in words; binding and its absence hold for the method and conditions named. In cells and extracts the contact can be indirect. Some binding calls cover weakened binding; strength is not graded here.

Target: Sp1 transcription factor (human (endogenous in SW480 and LOVO)), P08047
Experiment: co-IP; lysates of CRC cells (IP lysis buffer) incubated overnight at 4 °C with SP1 or β-catenin antibody, IgG as control; beads; western blot; control cells (circ_0026628 not silenced)
Conditions: remark: other sources report otherwise

B1: β-catenin, P35222 1-781 (protein)
chain: MATQADLMELDMAMEPDRKAAVSHWQQQSYLDSGIHSGATTTAPSLSGKGNPEEEDVDTSQVLYEWEQGFSQSFTQEQVADIDGQYAMTRAQRVRAAMFPETLDEGMQIPSTQFDAAHPTNVQRLAEPSQMLKHAVVNLINYQDDAELATRAIPELTKLLNDEDQVVVNKAAVMVHQLSKKEASRHAIMRSPQMVSAIVRTMQNTNDVETARCTAGTLHNLSHHREGLLAIFKSGGIPALVKMLGSPVDSVLFYAITTLHNLLLHQEGAKMAVRLAGGLQKMVALLNKTNVKFLAITTDCLQILAYGNQESKLIILASGGPQALVNIMRTYTYEKLLWTTSRVLKVLSVCSSNKPAIVEAGGMQALGLHLTDPSQRLVQNCLWTLRNLSDAATKQEGMEGLLGTLVQLLGSDDINVVTCAAGILSNLTCNNYKNKMMVCQVGGIEALVRTVLRAGDREDITEPAICALRHLTSRHQEAEMAQNAVRLHYGLPVVVKLLHPPSHWPLIKATVGLIRNLALCPANHAPLREQGAIPRLVQLLVRAHQDTQRRTSMGGTQQQFVEGVRMEEIVEGCTGALHILARDVHNRIVIRGLNTIPLFVQLLYSPIENIQRVAAGVLCELAQDKEAAEAIEAEGATAPLTELLHSRNEGVATYAAAVLFRMSEDKPQDYKKRLSVELTSSLFRTEPMAWNETADLGLDIGAQGEPLGYRQDDPSYRSFHSGGYGQDALGMDPMMEHEMGGHHPGADYPVDGLPDLGHAQDLMDGLPPGDSNQLAWFDTDL
**Q.** How did the binding turn out when B1 was run?
**A.** binds
